PubChem BioAssay AID602196, INSERM – 2012
Here is an unselected part of about 23,000 deposited reagents. 455 of them (2%) were called active. 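Active includes both protection and sensitisation; some change values fall well beyond the stated -50 to +50 range.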 The numbers tell different reagents against one gene apart. Not all columns of the deposit are shown. Not given: the amount of reagent.

Test: 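Modifiers of cisplatin sensitivity in A549 cells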
System: human A549 lung cancer cells
Reagents: siRNA pair against human genes
Duration: 48 h transfection before cisplatin; time from cisplatin to read-out not stated
Challenge: cisplatin at a dose killing half of control-siRNA cells; exact dose and duration not given
Read-out: 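Cisplatin cell death as a shift from the 50% death seen with control siRNA; siRNAs toxic or growth-blocking alone scored 0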
Direction: two-siRNA summed score (-2 to +2): higher = both siRNAs protect from cisplatin killing; -2 means both sensitise; mean protection from cisplatin (shift in death): higher = protection from cisplatin killing
Rule for the call: 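siRNAs harmful alone (LDH or WST-1) get 0; others get +1 for less and -1 for more cisplatin killing; genes are active when the two siRNAs give the same sign, summing to ±2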
Meaning of the calls: active = both siRNAs shift cisplatin killing the same way; inactive = no consistent shift, or siRNA harmful alone

With LOC442418, how do the results read?
two-siRNA summed score (-2 to +2): 0; mean protection from cisplatin (shift in death) (%): 6.2; Outcome: inactive

What is on record for AGPAT3 (1-acylglycerol-3-phosphate O-acyltransferase 3)?
two-siRNA summed score (-2 to +2): 0; mean protection from cisplatin (shift in death) (%): 13.3; Outcome: inactive

What is on record for C4orf46 (chromosome 4 open reading frame 46)?
two-siRNA summed score (-2 to +2): -1; mean protection from cisplatin (shift in death) (%): -3.6; Outcome: inactive

For YKT6P1 (YKT6 pseudogene 1), how do the results read?
two-siRNA summed score (-2 to +2): 1; mean protection from cisplatin (shift in death) (%): 11.1; Outcome: inactive

With PHF5A (PHD finger protein 5A), what was measured?
two-siRNA summed score (-2 to +2): 0; mean protection from cisplatin (shift in death) (%): -3.1; Outcome: inactive

For LOC442147, how do the results read?
two-siRNA summed score (-2 to +2): 1; mean protection from cisplatin (shift in death) (%): 16.1; Outcome: inactive

With VWA2 (von Willebrand factor A domain containing 2), how do the results read?
two-siRNA summed score (-2 to +2): 0; mean protection from cisplatin (shift in death) (%): -0.6; Outcome: inactive

What is on record for C8orf44 (chromosome 8 putative open reading frame 44)?
two-siRNA summed score (-2 to +2): 0; mean protection from cisplatin (shift in death) (%): 17.6; Outcome: inactive

What did the screen give for KIF3B (kinesin family member 3B)?
two-siRNA summed score (-2 to +2): -1; mean protection from cisplatin (shift in death) (%): -3; Outcome: inactive

Which result is listed for LOC283677?
two-siRNA summed score (-2 to +2): 0; mean protection from cisplatin (shift in death) (%): 3.1; Outcome: inactive

For C5orf15 (chromosome 5 open reading frame 15), how do the results read?
two-siRNA summed score (-2 to +2): 1; mean protection from cisplatin (shift in death) (%): 13.9; Outcome: inactive

With ZSWIM1 (zinc finger SWIM-type containing 1), what does the deposit list?
two-siRNA summed score (-2 to +2): 0; mean protection from cisplatin (shift in death) (%): 6.6; Outcome: inactive

For TAF1 (TATA-box binding protein associated factor 1), how do the results read?
two-siRNA summed score (-2 to +2): 0; mean protection from cisplatin (shift in death) (%): 5.1; Outcome: inactive

With XK, what was measured?
two-siRNA summed score (-2 to +2): 1; mean protection from cisplatin (shift in death) (%): 7.2; Outcome: inactive

With SPATA31D1 (SPATA31 subfamily D member 1), what does the deposit list?
two-siRNA summed score (-2 to +2): 0; mean protection from cisplatin (shift in death) (%): 8.2; Outcome: inactive

What did the screen give for LTB4R (leukotriene B4 receptor)?
two-siRNA summed score (-2 to +2): 1; mean protection from cisplatin (shift in death) (%): 9.1; Outcome: inactive

Looked up above:
Value for TAF1 (TATA-box binding protein associated factor 1) in “Outcome”: inactive
Value for LOC442147 under “Outcome”: inactive
For “two-siRNA summed score (-2 to +2)”, YKT6P1 (YKT6 pseudogene 1) reads 1
LOC283677, mean protection from cisplatin (shift in death) (%) → 3.1
Under “mean protection from cisplatin (shift in death) (%)”, LOC442418 reads 6.2

Continued:
What did the screen give for COL13A1 (collagen type XIII alpha 1 chain) #1?
two-siRNA summed score (-2 to +2): -1; mean protection from cisplatin (shift in death) (%): -5.7; Outcome: inactive

For COL13A1 (collagen type XIII alpha 1 chain) #2, what does the deposit list?
two-siRNA summed score (-2 to +2): -1; mean protection from cisplatin (shift in death) (%): -4.8; Outcome: inactive

How did the screen score COL13A1 (collagen type XIII alpha 1 chain) #3?
two-siRNA summed score (-2 to +2): -1; mean protection from cisplatin (shift in death) (%): -3.3; Outcome: inactive

For COL13A1 (collagen type XIII alpha 1 chain) #4, what does the deposit list?
two-siRNA summed score (-2 to +2): 0; mean protection from cisplatin (shift in death) (%): -3.9; Outcome: inactive

How did the screen score COL13A1 (collagen type XIII alpha 1 chain) #5?
two-siRNA summed score (-2 to +2): 0; mean protection from cisplatin (shift in death) (%): -3.1; Outcome: inactive

With COL13A1 (collagen type XIII alpha 1 chain) #6, what does the deposit list?
two-siRNA summed score (-2 to +2): 0; mean protection from cisplatin (shift in death) (%): -2.8; Outcome: inactive

What did the screen give for COL13A1 (collagen type XIII alpha 1 chain) #7?
two-siRNA summed score (-2 to +2): 0; mean protection from cisplatin (shift in death) (%): -2.7; Outcome: inactive

How did the screen score COL13A1 (collagen type XIII alpha 1 chain) #8?
two-siRNA summed score (-2 to +2): 0; mean protection from cisplatin (shift in death) (%): -2.4; Outcome: inactive

Which result is listed for COL13A1 (collagen type XIII alpha 1 chain) #9?
two-siRNA summed score (-2 to +2): 0; mean protection from cisplatin (shift in death) (%): -2.2; Outcome: inactive

How did the screen score COL13A1 (collagen type XIII alpha 1 chain) #10?
two-siRNA summed score (-2 to +2): 0; mean protection from cisplatin (shift in death) (%): -2; Outcome: inactive

With COL13A1 (collagen type XIII alpha 1 chain) #11, how do the results read?
two-siRNA summed score (-2 to +2): 0; mean protection from cisplatin (shift in death) (%): -1.8; Outcome: inactive

For COL13A1 (collagen type XIII alpha 1 chain) #12, how do the results read?
two-siRNA summed score (-2 to +2): 0; mean protection from cisplatin (shift in death) (%): -1.1; Outcome: inactive

With COL13A1 (collagen type XIII alpha 1 chain) #13, what does the deposit list?
two-siRNA summed score (-2 to +2): 0; mean protection from cisplatin (shift in death) (%): -1.1; Outcome: inactive

What is on record for COL13A1 (collagen type XIII alpha 1 chain) #14?
two-siRNA summed score (-2 to +2): 1; mean protection from cisplatin (shift in death) (%): 5.9; Outcome: inactive

For COL13A1 (collagen type XIII alpha 1 chain) #15, how do the results read?
two-siRNA summed score (-2 to +2): 1; mean protection from cisplatin (shift in death) (%): 9.5; Outcome: inactive

For COL13A1 (collagen type XIII alpha 1 chain) #16, what was measured?
two-siRNA summed score (-2 to +2): 1; mean protection from cisplatin (shift in death) (%): 10.6; Outcome: inactive

With COL13A1 (collagen type XIII alpha 1 chain) #17, how do the results read?
two-siRNA summed score (-2 to +2): 1; mean protection from cisplatin (shift in death) (%): 11.1; Outcome: inactive

With COL13A1 (collagen type XIII alpha 1 chain) #18, how do the results read?
two-siRNA summed score (-2 to +2): 1; mean protection from cisplatin (shift in death) (%): 12.8; Outcome: inactive

With COL13A1 (collagen type XIII alpha 1 chain) #19, what was measured?
two-siRNA summed score (-2 to +2): 1; mean protection from cisplatin (shift in death) (%): 14.3; Outcome: inactive
